In patent US20230047208A1, “RNA Splicing Modulation” (The General Hospital Corporation, priority 2020, published 2023):
The source gives many values for each of these; only a part stands here.

Tested on: wildtype (WT) human fibroblast cell lines
Assay: Transcriptome-wide splicing by RNA sequencing (RNASeq), exon triplet PSI change;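 for Effect: six WT fibroblast lines treated seven days versus DMSO vehicle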;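 for T-PSI: T-PSI is average treated PSI after seven days of treatment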
Type: cell-based
Set-up: key to Effect: Exclusion; Inclusion; Unchanged
Text: FIG. 2A provides a representation of an exon triplet. Exon U is upstream of Exon X, which is upstream of Exon D. R1, R2 and R3 represent RNA sequencing (RNASeq) reads spanning the regions between two adjacent exons. UI1, I1X, XI2 and I2D are four regions flanking the four splice sites of the exon-triplet. Each flanking region consists of 25 exonic base pairs and 75 intronic base pairs.
FIG. 2B provides a volcano plot showing the ψ (PSI: Percent Spliced-In) changes in splicing after treatment with Compound (I). Each dot represents one of the 161,097 expressed exon triplets in human fibroblasts. The x axis represents the ψ changes after treatment and the y axis represents the False Discovery Rate (FDR) (log 10 transformed). […] The horizontal dashed line indicates an FDR of 0.1. The dots on the right side of the right vertical dashed line and above the horizontal dashed line represent the exon-triplets with an increase for Exon X inclusion (Δψ≥0.1 and FDR<0.1) while the dots on left side of the left vertical dashed line and above the horizontal dashed line represent an increase for Exon X exclusion (Δψ≤−0.1 and FDR<0.1). Black dots in-between the two vertical dashed lines represent exon-triplets unchanged from the treatment.
In some aspects, analysis is performed on data derived from the assay to measure the magnitude of splicing to determine the amount of exons spliced into an mRNA transcript that is produced in the presence of Compound (I) relative to the amount in the absence of Compound (I) or presence of a negative control. In a preferred aspect, the method utilized is calculation of change in Percent Spliced In (ΔPSI). […] The ΔPSI value is derived from the formula: […]
The values for “a” and “b” represent the number of reads supporting the probability for potential inclusion or exclusion of an exon in an RNA transcript. The “a” value is derived from the number of reads within an exon triplet covering, in 5′ to 3′ order: the last few bases (>1 nucleotide) of an upstream exon operably linked to the first few bases (>1 nucleotide) of a middle exon. The “b” value is derived from the number of reads within an exon triplet covering, in 5′ to 3′ order: the last few bases (>1 nucleotide) of the middle exon operably linked to the first few bases (>1 nucleotide) of a downstream exon. The number of reads will indicate whether the splice junction of a middle exon has been identified as potentially having a CNN Motif(s) by the CNN Model described herein, wherein the inclusion or exclusion of the middle exon may be modulated in the presence of Compound (I) to produce one or more mature RNA isoforms from the gene transcript. The value for “c” represents the number of reads supporting the exclusion of the middle exon.
The effect on splicing modulation and corresponding splice differences toward exon inclusion or exclusion was determined by counting the RNASeq reads covering two splice junctions of exon triplets (three consecutive exons: Exon U, Exon X, Exon D) and the corresponding intervening introns, then comparing the change in Percent Spliced In (ΔPSI or Δψ) of the middle exon (Exon X) after treatment (as shown in FIG. 2A)^52,53. 934 exon triplets were identified showing differential middle exon inclusion or exclusion in response to Compound (I) treatment. Of these, 254 were exon inclusion events (Δψ≥0.1 and FDR<0.1) and 680 were exon exclusion events (Δψ≤−0.1 and FDR<0.1) (as shown in FIG. 2B). […] The splicing results were evaluated by RT-PCR in independent replicate experiments, confirming all the calculated Δψ values. […]

[1] = DNAJC2 Exon 102967779-102967825
[2] = DNAJC19 Exon 180704731-180704810
[3] = DNAJC19 Exon 180704786-180704810
[4] = DNM1L Exon 32891198-32891230, Intron1 32890096-32891197
[5] = DNM1L Exon 32891198-32891230, Intron1 32890877-32891197
[6] = DPH7 Exon 140471922-140472055, Intron1 140470620-140471921
[7] = DPH7 Exon 140471922-140472055, Intron1 140470855-140471921
[8] = DRAM2 Exon 1116822lO-ll 1682333
[9] = DYNC2H1 Exon 103029406-103029538
[10] = EBPL Exon 50243913-50243982, Intron1 50235345-50243912
[11] = EBPL Exon 50243913-50243982, Intron1 50237332-50243912

SMILES: Clc1nc(NCc2ccncc2)c2cc[nH]c2n1 [Compound (I), 2-chloro-N-(pyridin-4-ylmethyl)-7H-pyrrolo[2,3-d]pyrimidin-4-amine]
- ΔPSI (DMD Exon 31196049-31196087): −0.409
- Effect (DMKN Exon 35991280-35991321): Unc
- T-PSI (DMKN Exon 35991280-35991321): 0.230
- ΔPSI (DMKN Exon 35991280-35991321): 0.006
- Effect (DMTF1 Exon 86783706-86783844): Exc
- T-PSI (DMTF1 Exon 86783706-86783844): 0.076
- ΔPSI (DMTF1 Exon 86783706-86783844): −0.144
- Effect (DMTF1 Exon 86792555-86792648): Exc
- T-PSI (DMTF1 Exon 86792555-86792648): 0.098
- ΔPSI (DMTF1 Exon 86792555-86792648): −0.157
- Effect (DMTF1 Exon 86824000-86824144): Exc
- T-PSI (DMTF1 Exon 86824000-86824144): 0.779
- ΔPSI (DMTF1 Exon 86824000-86824144): −0.165
- Effect (DMWD Exon 46287899-46287973): Unc
- T-PSI (DMWD Exon 46287899-46287973): 0.642
- ΔPSI (DMWD Exon 46287899-46287973): −0.006
- Effect (DNAAF2 Exon 50094730-50094873): Unc
- T-PSI (DNAAF2 Exon 50094730-50094873): 0.673
- ΔPSI (DNAAF2 Exon 50094730-50094873): −0.007
- Effect [1]: Exc
- T-PSI [1]: 0.051
- ΔPSI [1]: −0.102
- Effect (DNAJC14 Exon 56223273-56223420): Unc
- T-PSI (DNAJC14 Exon 56223273-56223420): 0.767
- ΔPSI (DNAJC14 Exon 56223273-56223420): 0.003
- Effect [2]: Inc
- T-PSI [2]: 0.910
- ΔPSI [2]: 0.102
- Effect [3]: Inc
- T-PSI [3]: 0.811
- ΔPSI [3]: 0.135
- Effect (DNAJC24 Exon 31436358-31436496): Unc
- T-PSI (DNAJC24 Exon 31436358-31436496): 0.896
- ΔPSI (DNAJC24 Exon 31436358-31436496): −0.008
- Effect (DNM1L Exon 32890799-32890876): Inc
- T-PSI (DNM1L Exon 32890799-32890876): 0.788
- ΔPSI (DNM1L Exon 32890799-32890876): 0.243
- Effect [4]: Exc
- T-PSI [4]: 0.050
- ΔPSI [4]: −0.221
- Effect [5]: Exc
- T-PSI [5]: 0.180
- ΔPSI [5]: −0.366
- Effect (DNMT1 Exon 10290863-10290910): Exc
- T-PSI (DNMT1 Exon 10290863-10290910): 0.138
- ΔPSI (DNMT1 Exon 10290863-10290910): −0.141
- Effect (DOCK5 Exon 25246325-25246457): Inc
- T-PSI (DOCK5 Exon 25246325-25246457): 0.336
- ΔPSI (DOCK5 Exon 25246325-25246457): 0.251
- Effect (DOCK7 Exon 62953069-62953083): Exc
- T-PSI (DOCK7 Exon 62953069-62953083): 0.691
- ΔPSI (DOCK7 Exon 62953069-62953083): −0.221
- Effect (DPH3 Exon 16305662-16305736): Inc
- T-PSI (DPH3 Exon 16305662-16305736): 0.757
- ΔPSI (DPH3 Exon 16305662-16305736): 0.247
- Effect [6]: Unc
- T-PSI [6]: 0.718
- ΔPSI [6]: −0.006
- Effect [7]: Unc
- T-PSI [7]: 0.850
- ΔPSI [7]: −0.004
- Effect (DPM1 Exon 49557402-49557492): Unc
- T-PSI (DPM1 Exon 49557402-49557492): 0.893
- ΔPSI (DPM1 Exon 49557402-49557492): −0.001
- Effect (DPY19L4 Exon 95738559-95738669): Exc
- T-PSI (DPY19L4 Exon 95738559-95738669): 0.874
- ΔPSI (DPY19L4 Exon 95738559-95738669): −0.101
- Effect [8]: Inc
- T-PSI [8]: 0.668
- ΔPSI [8]: 0.202
- Effect (DRAM2 Exon 111667364-111667503): Exc
- T-PSI (DRAM2 Exon 111667364-111667503): 0.755
- ΔPSI (DRAM2 Exon 111667364-111667503): −0.169
- Effect (DSCR3 Exon 38605663-38605743): Exc
- T-PSI (DSCR3 Exon 38605663-38605743): 0.634
- ΔPSI (DSCR3 Exon 38605663-38605743): −0.288
- Effect (DTNBP1 Exon 15651544-15651594): Exc
- T-PSI (DTNBP1 Exon 15651544-15651594): 0.855
- ΔPSI (DTNBP1 Exon 15651544-15651594): −0.108
- Effect (DTNBP1 Exon 15651544-15651639): Exc
- T-PSI (DTNBP1 Exon 15651544-15651639): 0.751
- ΔPSI (DTNBP1 Exon 15651544-15651639): −0.176
- Effect (DUS2 Exon 68059318-68059397): Unc
- T-PSI (DUS2 Exon 68059318-68059397): 0.860
- ΔPSI (DUS2 Exon 68059318-68059397): −0.009
- Effect (DUSP11 Exon 73994288-73994334): Exc
- T-PSI (DUSP11 Exon 73994288-73994334): 0.659
- ΔPSI (DUSP11 Exon 73994288-73994334): −0.322
- Effect (DUSP22 Exon 335114-335163): Exc
- T-PSI (DUSP22 Exon 335114-335163): 0.479
- ΔPSI (DUSP22 Exon 335114-335163): −0.250
- Effect [9]: Exc
- T-PSI [9]: 0.828
- ΔPSI [9]: −0.160
- Effect [10]: Exc
- T-PSI [10]: 0.441
- ΔPSI [10]: −0.302
- Effect [11]: Exc
- T-PSI [11]: 0.680
- ΔPSI [11]: −0.181
- Effect (ECHDC2 Exon 53370706-53370762): Unc
- T-PSI (ECHDC2 Exon 53370706-53370762): 0.882
- ΔPSI (ECHDC2 Exon 53370706-53370762): −0.007
- Effect (EDC3 Exon 74979432-74979520): Exc
- T-PSI (EDC3 Exon 74979432-74979520): 0.069
- ΔPSI (EDC3 Exon 74979432-74979520): −0.112
- Effect (EDEM2 Exon 33721908-33721958): Inc
- T-PSI (EDEM2 Exon 33721908-33721958): 0.409
- ΔPSI (EDEM2 Exon 33721908-33721958): 0.276
- Effect (EDRF1 Exon 127417572-127417673): Exc
- T-PSI (EDRF1 Exon 127417572-127417673): 0.348
- ΔPSI (EDRF1 Exon 127417572-127417673): −0.365
- Effect (EFEMP1 Exon 56150034-56150074): Inc
- T-PSI (EFEMP1 Exon 56150034-56150074): 0.447
- ΔPSI (EFEMP1 Exon 56150034-56150074): 0.125
- Effect (EHBP1 Exon 63215066-63215173): Exc
